PubChem BioAssay AID1671195, Yale University, 2021
In all, the deposit lists about 22,000 reagents; shown is a part drawn at random. In the full data, about 1,510 (6.9%) are marked active. 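Active includes knockdowns raising or lowering LDL uptake; positive z-scores mean more uptake, negative mean less.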 Unmarked entries are inactive.

Purpose: 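Knockdowns that increase or decrease uptake of fluorescent LDL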 (primary screen)
Cell system: human Huh7 hepatoma cells
Reagent: siRNA pool against human genes, 18 nM
Time to read-out: about 2 to 2.5 days of knockdown, then 8 h LDL uptake
Conditions: DiI-labelled LDL at 30 µg/ml for 8 h, in lipoprotein-deficient serum medium
Read-out: 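Fluorescent LDL signal imaged in cells, scaled to the plate median, robust z-score for each replicate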
Direction: robust z-score: higher = more LDL uptake after knockdown
Rule for the call: 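a gene counts as active if at least two replicate z-scores exceed ±2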

| gene | robust z-score, replicate 1 | robust z-score, replicate 2 | robust z-score, replicate 3 |
| --- | --- | --- | --- |
| RGS14 (regulator of G protein signaling 14) | -1.3 | -1.11 | -0.967 |
| OR14J1 (olfactory receptor family 14 subfamily J member 1) | 1.01 | 0.356 | 0.711 |
| RTKN2 (rhotekin 2) | 2.53 (active) | 2 | 0.743 |
| PCBP4 (poly(rC) binding protein 4) | -1.65 | -1.18 | -1.71 |
| TPRG1L (tumor protein p63 regulated 1 like) | 0.425 | -0.943 | -0.048 |
| GAPDHP74 (glyceraldehyde-3-phosphate dehydrogenase pseudogene 74) | 0.284 | 0.292 | 0.284 |
| SPDYA (speedy/RINGO cell cycle regulator family member A) | -0.675 | 1.32 | 0.42 |
| TMBIM1 (transmembrane BAX inhibitor motif containing 1) | -0.0384 | 1.08 | 0.76 |
| LRRC4 (leucine rich repeat containing 4) | 1.24 | 1 | 0.491 |
| PPM1N (protein phosphatase, Mg2+/Mn2+ dependent 1N (putative)) | 1.68 | 1.12 | 1.84 |
| LBX1-AS1 (LBX1 antisense RNA 1) | -1.08 | -1.11 | -1.26 |
| LINC02591 (long independently transcribed non-coding RNA 2591) | 0.853 | -0.226 | -0.236 |
| LRRTM3 (leucine rich repeat transmembrane neuronal 3) | 1.05 | 0.529 | 0.469 |
| IFITM1 (interferon induced transmembrane protein 1) | 3.31 (active) | 2.18 | 3.78 |
| LOC100287217 | -0.706 | 0.195 | -0.0737 |
| PKN1 (protein kinase N1) | 1.79 | 2.33 | 0.427 |
| SERPINB9P1 (serpin family B member 9 pseudogene 1) | -0.667 | -0.617 | -0.921 |
| ADAM20 (ADAM metallopeptidase domain 20) | -0.141 | -0.281 | -0.116 |
| SNRNP25 (small nuclear ribonucleoprotein U11/U12 subunit 25) | 2.28 (active) | 2.53 | 1.65 |
| ZAP70 (zeta chain of T cell receptor associated protein kinase 70) | 0.826 | 1.7 | 0.556 |
| LINC00052 (long independently transcribed non-coding RNA 52) | -1.39 | -0.712 | -0.891 |
| ZNF280D (zinc finger protein 280D) | 0.691 | 1.95 | 1.2 |
| FAM178B (family with sequence similarity 178 member B) | 1.36 | 2.47 | -1.05 |
| SLC3A1 | -1.13 | -0.91 | -0.193 |
| ENPP3 (ectonucleotide pyrophosphatase/phosphodiesterase 3) | 0.175 | -0.0763 | -0.371 |
| AP1M2 (adaptor related protein complex 1 subunit mu 2) | -0.361 | -1.15 | -1.45 |
| SERPINA3 (serpin family A member 3) | 1.94 (active) | 1.04 | 2 |
| LOC400614 (retired record) | -0.646 | -0.327 | -0.399 |
| SLC33A2 | 0.517 | 0.642 | 1.07 |
| ATP6V0A1 (ATPase H+ transporting V0 subunit a1) | -1.26 | -1.14 | -1.36 |
| B3GALT5 (beta-1,3-galactosyltransferase 5) | -0.999 | -1.81 | -1.57 |
| ADORA2B (adenosine A2b receptor) | 0.0326 | -1.08 | -0.653 |
| MAP3K21 (mitogen-activated protein kinase kinase kinase 21) | 3.93 (active) | 4.98 | 3.63 |
| RHOG (ras homolog family member G) | -0.0843 | -0.781 | 0.736 |
| LOC440144 (retired record) | -0.594 | -0.906 | -1.05 |
| NXPE1 (neurexophilin and PC-esterase domain family member 1) | -1.14 | -1.07 | -1.77 |
| CDC42EP4 (CDC42 effector protein 4) | -1.22 | -1.46 | -1.23 |
| MIMS1 (mitochondrial inner membrane structural 1) | -1.34 | -1.6 | -1.26 |
| FBXL8 (F-box and leucine rich repeat protein 8) | 0.624 | 0.0549 | 0.557 |
| COQ8B (coenzyme Q8B) | 0.216 | -1.12 | -1.18 |
| SCNN1D (sodium channel epithelial 1 subunit delta) | 0.0775 | -0.66 | 0.928 |
| HMX2 (H6 family homeobox 2) | -1.21 | -1.51 | -1.5 |
| ZNF676 (zinc finger protein 676) | 3.61 (active) | 2.66 | 4.51 |
| LOC440554 (retired record) | 1.85 | 1.43 | 2.05 |
| EEF1A2 (eukaryotic translation elongation factor 1 alpha 2) | -0.6 | -0.6 | -0.508 |
| LOC342599 (retired record) | -0.0359 | -0.0843 | 0.0532 |
| FAM66E (family with sequence similarity 66 member E) | 0.309 | 0.393 | 0.137 |
| CAMP (cathelicidin antimicrobial peptide) | 1.41 | 1.66 | 1.1 |
| LOC441157 (retired record) | -1.1 | -1.49 | -1.46 |
| THUMPD1 (THUMP domain 1 NAT10 acetyltransferase adaptor) | 0.0703 | -1.04 | 0.964 |
| EIF1AX (eukaryotic translation initiation factor 1A X-linked) | -1.54 | -1.2 | -1.19 |
| LOC400730 (retired record) | -0.161 | 0.172 | 0.0516 |
| YOD1 (YOD1 deubiquitinase) | -1.73 | -1.7 | -1.26 |
| SIK2 (salt inducible kinase 2) | -0.0983 | -0.976 | -0.769 |
| KIF4A (kinesin family member 4A) | 1.34 | 0.935 | 0.0373 |
| SCFD1 (sec1 family domain containing 1) | 0.307 | -0.398 | 0.51 |
| SLC16A1 | -0.832 | -0.888 | -0.726 |
| CLIP4 (CAP-Gly domain containing linker protein family member 4) | 1.01 | 0.469 | 1.32 |
| YIPF7 (Yip1 domain family member 7) | -0.594 | -0.388 | -0.733 |
| MORC4 (MORC family CW-type zinc finger 4) | 1.36 | 0.173 | 0.68 |
| FBF1 (Fas binding factor 1) | 0.465 | 1.03 | 0.336 |
| RAD51AP2 (RAD51 associated protein 2) | -0.905 | -1.11 | -1.12 |
| DEFB103B (defensin beta 103B) | 1.1 | -1.2 | 0.905 |
| ENOPH1 (enolase-phosphatase 1) | 2.16 (active) | 1.53 | 2.41 |
| DNAL4 (dynein axonemal light chain 4) | 1.09 | 0.762 | 0.527 |
| SPATA8 (spermatogenesis associated 8) | 1.54 | 1.04 | 1.97 |
| UCHL5 (ubiquitin C-terminal hydrolase L5) | 0.267 | 0.398 | 0.42 |
| LINC01538 (long independently transcribed non-coding RNA 1538) | -0.898 | -0.711 | -0.898 |
